Measurements as given in PubChem BioAssay AID1458 (National Center for Advancing Translational Sciences (NCATS), 2008).
Values joined by “and” are separate entries in the source; they are usually repeats but may differ in a detail not shown here. Equal values may be shown once. About 5,900 (2.8%) of roughly 210,000 compounds were called active. Another 5% or so got no clear call; they are omitted. Calls come from the whole dose curve; as a rule, active = well fitted activation curve with a large enough effect; inconclusive = small, poorly fitted or top-dose-only effect; inactive = no such curve, though single readings can be large or run the other way. Only a part is listed here, and it is no random draw. Entries without a call were filed so in the source.

Experiment: qHTS Assay for Enhancers of SMN2 Splice Variant Expression; note: nearly all actives have a fitted effect of over 55% in size; for activity change, positive = activation: % of control where 0% means no effect
Conditions: HEK293 SMN2-luciferase splicing reporter, luminescence, 30-36 h; activity change, positive = activation: at 46.1 µM (top of the series) unless noted
How it was run: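 qHTS luciferase splicing reporter: luminescence rises when SMN2 exon 7 is included in transfected HEK293 cells. Compound exposure lasted 30-36 h at 37C, with 4.5 mM final sodium butyrate as control, followed by a ONE-Glo read.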
Potency is the fitted concentration of half-maximal effect.

Row | SMILES | activity change, positive = activation | Potency
1 | COc1ccc(Cc2nc(-c3ccc(-n4cccc4)cc3)no2)cc1 | inactive: -33.6% | –
2 | O=C(/C=C/c1cccs1)Nc1cccc(NC(=O)/C=C/c2cccs2)n1 | – | active: 7.08 µM
3 | CC1CN(C2CCN(S(=O)(=O)Cc3ccccc3)CC2)CC(C)O1 (configuration not stated) | 50.4% | –
4 | C=CCOC(=O)Nc1ccc(Cl)cc1NC(=O)OCC=C | 14.7% | –
5 | CCOc1ccccc1N1CCN(C(=O)Nc2cccc(Cl)c2)CC1 | 25.9% | –
6 | O=c1[nH]c(=O)n([C@H]2C[C@H](O)[C@@H](CO)O2)cc1Br | – | active: 14.1 µM and active: 10 µM
7 | CC/C(=N\NC(=O)c1ccoc1C)c1ccc(C)o1 | 30.1% | –
8 | Cn1c(=O)c2c(ncn2CC(=O)N2CCN(c3ccccc3)CC2)n(C)c1=O | 44% | –
9 | CC(C)Sc1nnc(NC(=O)c2ccco2)s1 | 202% | –
10 | O=C(Nc1cccc2nsnc12)C1CC(=O)N(c2ccccc2)C1 (configuration not stated) | 59.3% | –
11 | O=c1c2ccc([N+](=O)[O-])c3cccc(c32)c2nc3ccccc3n12 | -87.8% | –
12 | O=C(NCc1cccs1)c1ccc(CSc2nc3ccncc3n2Cc2ccccc2F)cc1 | 38.7% | –
13 | N=c1c(S(=O)(=O)c2ccccc2)cc2c(=O)n3ccccc3nc2n1CC1CCCO1 (configuration not stated) | 46.6% | –
14 | O=[N+]([O-])c1cccc(-c2ccc(C(=S)N3CCOCC3)o2)c1 | – | active: 11.2 µM
15 | O=c1oc(Nc2cccc(Cl)c2)nc2ccccc12 | – | active: 11.2 µM
16 | Fc1ccc(N=C2NN=C(c3cc(F)ccc3F)CS2)cc1 | – | active: 22.4 µM
17 | Cc1oc2ccccc2c1-c1cn2c(n1)SCC2 | 34% | –
18 | CCn1c(CNC(=O)Cc2ccc(OC)cc2)nnc1SCC(=O)Nc1nccs1 | 13.3% | –
19 | CSc1nnc(-c2ccc(S(=O)(=O)N3CCCC3)cc2)n1C | 57.6% | –
20 | CCOC(=O)C(C)Oc1ccc(=O)n(-c2ccccc2)n1 (configuration not stated) | 27.1% | –
21 | Cc1cc(/C=C2\Cc3ccccc3C2=O)c(C)n1-c1ccccc1 | – | active: 4.47 µM
22 | O=C(CSc1nc2ccccc2c(=O)n1-c1ccc(F)cc1F)Nc1ccc2c(c1)CCC2 | -28.6% | –

Row | SMILES | activity change, positive = activation | Potency
23 | Cc1ccc(NS(=O)(=O)c2cc(NC(=O)c3ccc4c(c3)NC(=O)CS4)ccc2C)c(C)c1 | inactive: -42% | –
24 | COc1ccccc1N1CCN(C(c2cccs2)C(C)NC(=O)c2cccs2)CC1 (configuration not stated) | inactive: -48.1% | –
25 | COc1ccc(N(C)C(=O)CCS(=O)(=O)c2cccc3nonc23)c(OC)c1 | 49.2% | –
26 | CCCn1c(N)c(Sc2ccc(Cl)cc2)c(=O)n(CCC)c1=O | 40.7% | –
27 | CCN1CCN(c2ccc(NC(=O)Cc3ccccc3)cc2)CC1 | 64.8% | –
28 | CCOc1ccc(-n2c(-c3ccccc3)c[n+]3c2CCC3)cc1 | -75.8% | –
29 | COCC(C)n1c(C)cc(C(=O)CSc2ncccn2)c1C (configuration not stated) | – | active: 11.2 µM
30 | CCOC(=O)c1cnc2ccc(OC)cc2c1Nc1ccc(OCc2ccccc2Cl)cc1 | inactive: -33.8% | –
31 | COc1ccc(CC(=O)Nc2nc(-c3cc(OC)ccc3OC)cs2)cc1 | inactive: -38.6% | –
32 | CC1=CC2=C(OC1N(C)C)c1cccc3cccc(c13)C2=O (configuration not stated) | 50.2% | –
33 | O=C(CSc1ccc(Cl)cc1Cl)N1CCC(c2nc3ccccc3s2)CC1 | -34.9% | –
34 | CC(C)Nc1nc(Cl)nc(NN(C)c2nc(N(C)C)nc(N(C)C)n2)n1 | -35.3% | –
35 | COC(=O)C1=C(C)N(C)C(C)=C(C(=O)OC)C1c1ccncc1 | 69.4% | –
36 | Cc1ccc(-c2csc(=S)n2CC(=O)OCC(=O)NCc2ccco2)cc1 | 33.1% | –
37 | CCOC(=O)CSC1=C(C#N)C(c2ccc(C)s2)CC(=O)N1 (configuration not stated) | inactive: -40.1% | –
38 | O=C(c1ccco1)N1CCN(C(=O)c2cnn3c(C(F)(F)F)cc(-c4cccs4)nc23)CC1 | 33.6% | –
39 | CCCCOC(=O)Nc1ccc(N2CCCCC2)cc1 | – | active: 11.2 µM
40 | COCCn1nnnc1C(c1cc2cccc(C)c2[nH]c1=O)N1CCN(c2ccccc2F)CC1 (configuration not stated) | 23.7% | –
41 | OC[C@H]1O[C@@H](n2cnc3c(Nc4ccccc4)ncnc32)[C@H](O)[C@@H]1O | 46.8% | –
42 | COc1ccc(C(=O)Nc2ccc(C)cn2)c(OC)c1 | -84.3% | –
43 | Cc1c(NC(=O)CSC2=C(C#N)C(c3ccccc3F)CC(=O)N2)c(=O)n(-c2ccccc2)n1C (configuration not stated) | 35.2% | –
44 | Cc1ccc(S(=O)(=O)N2CCCC2C(=O)n2nc(C)cc2C)cc1 (configuration not stated) | 112% | –

Row | SMILES | activity change, positive = activation | Potency
45 | O=C(CSc1nnc(-c2ccco2)o1)NC(=O)Cc1ccccc1 | 45.8% | –
46 | CC(C)COc1ccc(C(=O)Nc2ccccc2[N+](=O)[O-])cc1 | – | active: 15.8 µM
47 | N#Cc1cc(-c2ccccc2)nnc1Oc1ccccc1 | inactive: -49.1% | –
48 | O=C(O)c1ccc(Cn2cc(Cl)cn2)cc1 | 31.9% | –
49 | C/C(=N\NC(=O)c1cc(C)[nH]n1)c1cccs1 | – | active: 11.2 µM
50 | COc1ccc(C(C)=O)cc1CSc1nnc(Nc2ccc(C)cc2)s1 | inactive: -49.2% | –
51 | CCOc1cc(S(=O)(=O)Nc2ccc(Cl)cn2)ccc1F | 38.7% | –
52 | O=C(CN1C(=O)CCC1=O)Nc1nc(-c2nc3ccccc3s2)cs1 | – | active: 12.6 µM
53 | COc1ccc(S(=O)(=O)NC2CC3CCC2C3)cc1Cl (configuration not stated) | 39.2% | –
54 | O=C(NCCOCc1ccccc1)C(c1ccccc1)c1ccccc1 | inactive: -0.474% | –
55 | Cc1ccc(NC(=O)COc2cccnc2[N+](=O)[O-])cc1S(=O)(=O)N1CCCCC1 | -59.5% | –
56 | COc1cc(/C=C2\SC(=Nc3ccc(F)cc3)N(c3ccc(F)cc3)C2=O)ccc1OCC(=O)O | inactive: -12.4% | –
57 | O=C(NCc1cn2ccccc2n1)c1ccc(Br)o1 | 22% | –
58 | O=C(O)c1cccc(OCc2ccccc2Cl)c1 | 23.1% | –
59 | Cc1c(Cl)cccc1NC(=O)COC(=O)c1c2c(nc3ccccc13)CCN(Cc1ccccc1)C2 | -40.2% | –
60 | O=C1CCCc2oc3c(c21)CCCC3 | inactive: -8.53% | –
61 | Cc1cccc(C)c1NC(=O)CCCSc1nnc(-c2ccc(Cl)cc2)n1-c1ccccc1 | inactive: -64.9% | –
62 | O=C(CCSc1ccccc1)N1CCN(c2ccccc2F)CC1 | – | active: 11.2 µM
63 | COc1cc(NC(=O)COC(=O)CNC(=O)c2ccc(C)s2)cc(OC)c1 | 41.3% | –
64 | COc1ccc(C)cc1N(CC(=O)O)S(=O)(=O)c1ccc(C)cc1 | 59.2% | –
65 | O=C(N/N=C/c1ccccc1OC(=O)c1ccc2c(c1)OCO2)c1ccccc1 | -90% | –
66 | CCCC12C(=O)C(C)(C(c3ccccc3)=C1c1ccccc1)C1C(=O)N(c3ccc(C)cc3)C(=O)C12 (configuration not stated) | -90.5% | –

Row | SMILES | activity change, positive = activation | Potency
67 | Nn1c(SCC(=O)N2CCOCC2)nnc1-c1ccccc1Cl | 45% | –
68 | CN1CCN(C(=O)c2ccccc2-c2nc(-c3ccc(Cl)cc3)no2)CC1 | 43.4% | –
69 | O=C(Nc1ccccc1N1CCOCC1)c1cc2c(s1)CCCCC2 | 55.9% | –
70 | Fc1ccc(-c2nnc3ccc(N4CCc5ccccc5C4)nn23)cc1 | inactive: -36.5% | –
71 | O=C(N/N=C/c1ccccn1)c1ccccc1 | – | active: 11.2 µM
72 | COC(=O)c1ccc(C(=O)NC(=S)Nc2nc3c(s2)CC(C)CC3)cc1 (configuration not stated) | – | active: 15.8 µM
73 | Cc1ccc(C(=O)COC(=O)c2ccc(O)cc2)cc1 | 129% | –
74 | Cc1cc(C)c(C(=O)/C=C/c2ccc(C(C)C)cc2)c(=O)[nH]1 | inactive: -70.2% | –
75 | COC(=O)c1cc2ccccc2oc1=O | 30.6% | –
76 | CCC(=O)c1ccc(OCC(=O)NCC2(N3CCCCC3)CCCCC2)cc1 | 173% | –
77 | CCOC(=O)C1CCN(c2c(C(=O)c3ccccc3)cnc3ccc(CC)cc23)CC1 | 51.7% | –
78 | CCN(CC)c1ccc(CNC23CN4CN(CN(C4)C2)C3)cc1 | -37.5% | –
79 | c1ccc2c(Oc3ccc4c(c3)OCO4)nncc2c1 | – | active: 10 µM
80 | Brc1ccc(/C=N/Nc2ccccn2)cc1 | 80% | –
81 | C/C(=N\NC(=O)CC#N)c1cc2ccccc2oc1=O | -32.5% | –
82 | CCc1ccc(CNC(=O)Cn2nc(-c3ccccc3)ccc2=O)cc1 | inactive: -46.3% | –
83 | COc1ccc(OC)c(C(=O)c2coc3ccc(O)c(CN4CCOCC4)c23)c1 | 24.3% | –
84 | Cc1ccc(SC(C)C(=O)Nc2ccccc2C(=O)N2CCOCC2)cc1 (configuration not stated) | 33.6% | –
85 | CCCCn1c(SCC(=O)Nc2nnc(C(C)C)s2)nc2c1c(=O)n(C)c(=O)n2C | -68.1% | –
86 | CN=c1scc(-c2ccccc2Br)n1/N=C/c1ccc[nH]1 | -63.2% | –
87 | Clc1ccccc1OCc1nc(-c2ccccn2)no1 | – | active: 4.47 µM
88 | CCOc1c(Br)cc(C(N)=O)cc1OCc1ccccc1 | -16% | –

Row | SMILES | activity change, positive = activation | Potency
89 | CC(C)(C)NC(=O)c1cccc2c1OC(C)(C)C2 | 1.36% | –
90 | Cc1ccc(S(=O)(=O)Nc2ccc(C(=O)Nc3ccncc3)cc2)cc1 | 31.8% | –
91 | Cc1cc(C)c(NC(=O)c2ccc(S(=O)(=O)N(C)C)cc2)c(C)n1 | 54% | –
92 | COc1ccc(CCNC(=O)CCCn2nc(C)c([N+](=O)[O-])c2C)cc1OC | 51.5% | –
93 | Cc1ccc(C2=[N+]([O-])C3(CCCCC3=O)N(O)C2(C)C)cc1 (configuration not stated) | 27.1% | –
94 | O=C1c2ccccc2S(=O)(=O)N1CC1CC(c2ccc(Cl)cc2)=NO1 (configuration not stated) | – | active: 15.8 µM
95 | COC(=O)c1ccc(C)c(NC(=O)c2c(-c3ccccc3)noc2C)c1 | 24.7% | –
96 | CCCS(=O)(=O)c1ncc(Cl)c(C(=O)N(Cc2ccccc2)Cc2ccco2)n1 | inactive: -63.7% | –
97 | CN(CC(=O)Nc1ccccc1Br)c1ncnc2sccc12 | -65.7% | –
98 | Cn1c(=O)c2c(SCc3ccccn3)nc(CC(C)(C)C)nc2n(C)c1=O | 50.5% | –
99 | O=C(Nc1ccc2c(c1)oc1ccccc12)c1ccncc1 | inactive: -23% | –
100 | COC(=O)c1ccccc1NC(=O)CN1C(=O)c2ccccc2S1(=O)=O | 63.6% | –
101 | COC(=O)c1ccc(-c2ccc(/C=N/NC(=O)CC3(C)OCCCO3)o2)cc1 | – | active: 11.2 µM
102 | O=C1CC(SCc2nc3ccccc3[nH]2)C(=O)N1c1cccc(F)c1 (configuration not stated) | 31.4% | –
103 | CN(c1ccccc1)S(=O)(=O)c1ccc(NC(=O)c2ccc(-c3ccccc3)cc2)cc1 | -52.8% | –
104 | CCOC(=O)C1CCCN(C(=O)c2ccc3c(=O)n(CCOC)c(=S)[nH]c3c2)C1 (configuration not stated) | inactive: -66.6% | –
105 | Fc1ccc(-c2cc(C(F)(F)F)nc(NCc3cccs3)n2)cc1 | inactive: -30.3% | –
106 | COC(=O)c1ccc(OCC(=O)c2ccccc2OC)cc1 | inactive: -24.7% | –
107 | CC1CCCC(NC(=O)NC(=O)CCl)C1C (configuration not stated) | inactive: -106% | –

Laid out differently: six of the compounds above
Row	SMILES	activity change, positive = activation	Potency
91	Cc1cc(C)c(NC(=O)c2ccc(S(=O)(=O)N(C)C)cc2)c(C)n1	54%	–
93	Cc1ccc(C2=[N+]([O-])C3(CCCCC3=O)N(O)C2(C)C)cc1 (configuration not stated)	27.1%	–
94	O=C1c2ccccc2S(=O)(=O)N1CC1CC(c2ccc(Cl)cc2)=NO1 (configuration not stated)	–	active: 15.8 µM
99	O=C(Nc1ccc2c(c1)oc1ccccc12)c1ccncc1	inactive: -23%	–
101	COC(=O)c1ccc(-c2ccc(/C=N/NC(=O)CC3(C)OCCCO3)o2)cc1	–	active: 11.2 µM
107	CC1CCCC(NC(=O)NC(=O)CCl)C1C (configuration not stated)	inactive: -106%	–
